No constants are given. Whether binding was seen depends on the method and setting. Binding seen in cells or lysates may run through a third protein. A yes stands for co-enrichment or nearness to the bait. Other partners may have been found. For some assays here: A no says only that the protein was not detected with the bait. For some assays here: Sequences can lack the tags named with a protein.
Legend:
MYC:APEX2:RAB30 (human) = target: T1, MYC:APEX2:RAB30 (human) (UniProt Q15771); experiment: proximity labelling
T1 sequence: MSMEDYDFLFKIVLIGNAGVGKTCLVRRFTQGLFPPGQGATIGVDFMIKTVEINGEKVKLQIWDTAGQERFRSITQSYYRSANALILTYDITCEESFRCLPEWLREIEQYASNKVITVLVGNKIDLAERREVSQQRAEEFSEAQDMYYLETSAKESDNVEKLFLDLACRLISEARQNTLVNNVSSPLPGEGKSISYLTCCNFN

Chains of the proteins cited; added tags and fusions are not shown.
UniProt P20338: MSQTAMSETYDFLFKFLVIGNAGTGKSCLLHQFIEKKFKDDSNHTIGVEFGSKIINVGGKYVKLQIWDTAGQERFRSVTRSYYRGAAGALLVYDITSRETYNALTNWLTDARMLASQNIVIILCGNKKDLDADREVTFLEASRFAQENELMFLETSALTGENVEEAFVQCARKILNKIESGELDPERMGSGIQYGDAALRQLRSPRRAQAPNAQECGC

APEX2:RAB4A (human) = APEX2:RAB4A (human) (UniProt P20338); experiment: proximity labelling

B1: RIC1 (protein, UniProt Q4ADV7 1-1423)
chain: MYFLSGWPKRLLCPLGSPAEAPFHVQSDPQRAFFAVLAAARLSIWYSRPSVLIVTYKEPAKSSTQFGSYKQAEWRPDSTMIAVSTANGYILFFHITSTRGDKYLYEPVYPKGSPQMKGTPHFKEEQCAPALNLEMRKILDLQAPIMSLQSVLEDLLVATSDGLLHLIHWEGMTNGRKAINLCTVPFSVDLQSSRVGSFLGFTDVHIRDMEYCATLDGFAVVFNDGKVGFITPVSSRFTAEQLHGVWPQDVVDGTCVAVNNKYRLMAFGCVSGSVQVYTIDNSTGAMLLSHKLELTAKQYPDIWNKTGAVKLMRWSPDNSVVIVTWEYGGLSLWSVFGAQLICTLGGDFAYRSDGTKKDPLKINSMSWGAEGYHLWVISGFGSQNTEIESDLRSVVKQPSILLFQFIKSVLTVNPCMSNQEQVLLQGEDRLYLNCGEASQTQNPRSSSTHSEHKPSREKSPFADGGLESQGLSTLLGHRHWHVVQISSTYLESNWPIRFSAIDKLGQNIAVVGKFGFAHYSLLTKKWKLFGNITQEQNMIVTGGLAWWNDFMVLACYNINDRQEELRVYLRTSNLDNAFAHVTKAQAETLLLSVFQDMVIVFRADCSICLYSIERKSDGPNTTAGIQVLQEVSMSRYIPHPFLVVSVTLTSVSTENGITLKMPQQARGAESIMLNLAGQLIMMQRDRSGPQIREKDSNPNNQRKLLPFCPPVVLAQSVENVWTTCRANKQKRHLLEALWLSCGGAGMKVWLPLFPRDHRKPHSFLSQRIMLPFHINIYPLAVLFEDALVLGAVNDTLLYDSLYTRNNAREQLEVLFPFCVVERTSQIYLHHILRQLLVRNLGEQALLLAQSCATLPYFPHVLELMLHEVLEEEATSREPIPDPLLPTVAKFITEFPLFLQTVVHCARKTEYALWNYLFAAVGNPKDLFEECLMAQDLDTAASYLIILQNMEVPAVSRQHATLLFNTALEQGKWDLCRHMIRFLKAIGSGESETPPSTPTAQEPSSSGGFEFFRNRSISLSQSAENVPASKFSLQKTLSMPSGPSGKRWSKDSDCAENMYIDMMLWRHARRLLEDVRLKDLGCFAAQLGFELISWLCKERTRAARVDNFVIALKRLHKDFLWPLPIIPASSISSPFKNGKYRTVGEQLLKSQSADPFLNLEMDAGISNIQRSQSWLSNIGPTHHEIDTASSHGPQMQDAFLSPLSNKGDECSIGSATDLTESSSMVDGDWTMVDENFSTLSLTQSELEHISMELASKGPHKSQVQLRYLLHIFMEAGCLDWCIVIGLILRESSIINQILVITQSSEVDGEMLQNIKTGLHAVDRWASTDCPGYKPFLNIIKPQLQKLSEITEEQVQPDAFQPITMGKTPEQTSPRAEESRGSSSHGSIPQGEVGSSNMVSRKEEDTAQAEEEEPFQDGTYDCSVS
Which binding (MYC:APEX2:RAB30 (human)) does the source give for B1 here?
The binding was “binds”.

B2: VPS54 (endogenous) (protein, UniProt Q9P1Q0 1-977)
chain: MASSHSSSPVPQGSSSDVFFKIEVDPSKHIRPVPSLPDVCPKEPTGDSHSLYVAPSLVTDQHRWTVYHSKVNLPAALNDPRLAKRESDFFTKTWGLDFVDTEVIPSFYLPQISKEHFTVYQQEISQREKIHERCKNICPPKDTFERTLLHTHDKSRTDLEQVPKIFMKPDFALDDSLTFNSVLPWSHFNTAGGKGNRDAASSKLLQEKLSHYLDIVEVNIAHQISLRSEAFFHAMTSQHELQDYLRKTSQAVKMLRDKIAQIDKVMCEGSLHILRLALTRNNCVKVYNKLKLMATVHQTQPTVQVLLSTSEFVGALDLIATTQEVLQQELQGIHSFRHLGSQLCELEKLIDKMMIAEFSTYSHSDLNRPLEDDCQVLEEERLISLVFGLLKQRKLNFLEIYGEKMVITAKNIIKQCVINKVSQTEEIDTDVVVKLADQMRMLNFPQWFDLLKDIFSKFTIFLQRVKATLNIIHSVVLSVLDKNQRTRELEEISQQKNAAKDNSLDTEVAYLIHEGMFISDAFGEGELTPIAVDTTSQRNASPNSEPCSSDSVSEPECTTDSSSSKEHTSSSAIPGGVDIMVSEDMKLTDSELGKLANNIQELLYSASDICHDRAVKFLMSRAKDGFLEKLNSMEFITLSRLMETFILDTEQICGRKSTSLLGALQSQAIKFVNRFHEERKTKLSLLLDNERWKQADVPAEFQDLVDSLSDGKIALPEKKSGATEERKPAEVLIVEGQQYAVVGTVLLLIRIILEYCQCVDNIPSVTTDMLTRLSDLLKYFNSRSCQLVLGAGALQVVGLKTITTKNLALSSRCLQLIVHYIPVIRAHFEARLPPKQYSMLRHFDHITKDYHDHIAEISAKLVAIMDSLFDKLLSKYEVKAPVPSACFRNICKQMTKMHEAIFDLLPEEQTQMLFLRINASYKLHLKKQLSHLNVINDGGPQNGLVTADVAFYTGNLQALKGLKDLDLNMAEIWEQKR
For B2, which binding (APEX2:RAB4A (human)) is on record?
The binding was “no binding”.

Source: doi:10.1101/2024.11.05.621850
